The source of these data is US20210324059A1.

The target of the test is Glutathione S-transferase. Put plainly: quality control ELISA on immobilized control protein. Background: ELISA stands for enzyme-linked immunosorbent assay.

Results are given in words; binding and its absence hold for the method and conditions named. Sequences can lack the tags named with a protein.

B1: full length chimeric antibody AbD33473 with an IgG1 mouse Fc region (antibody, V domains shown)
VH: EVQLVQSGAEVKKPGESLKISCKGSGYSFSSYWIHWVRQMPGKGLEWMGTIFPSRSYTTYSPSFQGQVTISADKSISTAYLQWSSLKASDTAMYYCARDTPSTALKSPFDYWGQGTLVTVSS
VL: DIVLTQPPSVSGAPGQRVTISCSGSSSNIGYNYVYWYQQLPGTAPKLLIYENNKRPSGVPDRFSGSKSGTSASLAITGLQAEDEADYYCSSWDSHSNSYVFGGGTKLTVLG
As for B1, the binding entry is listed as “no binding”.

B2: full length chimeric antibody AbD33047 with an IgG1 mouse Fc region (antibody, V domains shown)
VH: QVQLVQSGAEVKKPGASVKVSCKASGYTFNDYYIHWVRQAPGQGLEWMGVISPNSGKTNYAQKFQGRVTMTRDTSISTAYMELSRLRSEDTAVYYCARDLYPDSSAFDIWGQGTLVTVSS
VL: DIELTQPPSVSVSPGQTASITCSGDNLGDKYAHWYQQKPGQAPVLVIYDDNERPSGIPERFSGSNSGNTATLTISGTQAEDEADYYCQSYDSGNRVFGGGTKLTVLG
In the case of B2, the binding result is “no binding”.
